Laboratory results as given in the supplement of paper PMC3682954.
Several values for one entry are separate records, joined by “and”; a condition that tells them apart may be missing. Identical values can stand only once. Counter-ions that a name gives are not always drawn. ± gives the standard deviation of the averaged measurements. This is one part of the list. Repeats are few or missing, and single values can be far off.

Test system: RAW 264.7
Test: HMGB1-induced TNF-alpha production relative to HMGB1-stimulated control; higher = more TNF-alpha secretion (less inhibition)
Details: stimulus: HMGB1 5 ug/ml, 18 h
[1] = compound concentration: 1 ug/ml

SMILES | HMGB1-induced TNF-alpha production (compound concentration: 3 uM) | HMGB1-induced TNF-alpha production [1]
C#CCOC(=O)C1=CCCN(C)C1 [Arecaidine propargyl ester hydrobromide] | 98.8% | 
CC(C)NCC(O)c1ccc(N)c(C#N)c1 (stereo unspecified) [Cimaterol] | 60.6% | 
CNCC(O)c1ccc(O)cc1 (stereo unspecified) | 77.6% and 93.3% | 
NCC(CP(=O)(O)O)c1ccc(Cl)cc1 (stereo unspecified) [Phaclofen] | 111% | 
CNC(C)(C)Cc1ccccc1 [Mephentermine hemisulfate] | 102% | 
CNC(C)(C)Cc1ccccc1 | 94.5% | 
CCOP(=S)(OCC)Oc1cc(C)nc(C(C)C)n1 | 82.6% | 
C[C@]12CCC(=O)C(O)=C1CC[C@@H]1[C@@H]2CC[C@]2(C)C(=O)CC[C@@H]12 | 82.7 ± 6% | 
C[C@]12CCC(=O)C(O)=C1CC[C@@H]1[C@@H]2CC[C@]2(C)C(=O)CC[C@@H]12 [Formestane] | 97.6 ± 20% | 
c1ccc(C2CC2)c(OCC2=NCCN2)c1 [Cirazoline] | 102% | 
c1ccc(C2CC2)c(OCC2=NCCN2)c1 [Cirazoline hydrochloride] | 75.7% | 
CCCC(=O)OCC[N+](C)(C)C [Butyrylcholine] | 95.1% | 
CN1[C@@H]2CC[C@H]1C[C@@H](OC(c1ccccc1)c1ccccc1N)C2 (stereo partly specified) [Aminobenztropine] | 90.5% | 
CCOP(=S)(OCC)Oc1nc(Cl)c(Cl)cc1Cl | 66.9% | 
COP(=S)(OC)Oc1ccc(Sc2ccc(OP(=S)(OC)OC)cc2)cc1 | 87.1% | 
CC(C)CC1C(=O)N2CCCC2C2(O)OC(NC(=O)C3C=C4c5cccc6[nH]cc(c56)CC4N(C)C3)(C(C)C)C(=O)N12 (stereo not drawn) [alpha-Ergocryptine] |  | 55%
CC1=C(C2=C(C)C(=O)c3c(c(C=O)c(O)c(O)c3C(C)C)C2=O)C(=O)c2c(C=O)c(O)c(O)c(C(C)C)c2C1=O [Gossypolone] |  | 82.7%
C[C@@H]1O[C@@H](O[C@H]2C[C@@H](O)[C@]3(CO)[C@H]4[C@H](O)C[C@]5(C)[C@@H]([C@@H]6COC(=O)C6)CC[C@]5(O)[C@@H]4CC[C@]3(O)C2)[C@H](O)[C@H](O)[C@H]1O [Dihydroouabain] | 76.5% | 
CCCN1CCO[C@@H]2c3cc(O)ccc3OC[C@H]21 (racemic) [(±)-PD 128,907 hydrochloride] | 76.2% | 
CCCN1CCO[C@@H]2c3cc(O)ccc3OC[C@H]21 [S(+)-PD 128,907 hydrochloride] | 111% | 
c1ccc2c3c([nH]c2c1)CNCC3 | 97.5% | 

SMILES | HMGB1-induced TNF-alpha production (compound concentration: 3 uM) | HMGB1-induced TNF-alpha production [1]
CCCCCCCCCCCCCCCC[n+]1ccccc1 | 62.1% | 
C=CCC1(C(C)CCC)C(=O)NC(=S)NC1=O (stereo unspecified) | 81.8% | 
O=C(O)Cc1cnc[nH]1 [Imidazole-4-acetic acid hydrochloride] | 84.3% | 
CNC(=O)Oc1ccccc1OC(C)C | 74.8% | 
O=C(O)[C@@H]1CCN1 [L-azetidine-2-carboxylic acid] | 85.3% | 
NCC(O)c1cccc(O)c1 (racemic) [DL-Norphenylephrine hydrochloride] |  | 82.5%
CC(=O)NC1CCSC1=O (stereo unspecified) | 77.9% | 
CC(=O)OCC1=C(C(=O)[O-])N2C(=O)[C@@H](NC(=O)CCC[C@@H](N)C(=O)[O-])[C@H]2SC1.[Zn+2] [Cephalosporin C zinc salt] | 88% | 
CN1C(=O)CCS(=O)(=O)C1c1ccc(Cl)cc1 (stereo unspecified) | 80.7% | 
CN1C(=O)CCS(=O)(=O)C1c1ccc(Cl)cc1 (stereo unspecified) [Chlormezanone] | 71.7 ± 7.2% | 
C[C@]12COC(=O)C[C@@H]1CC[C@@H]1[C@@H]2CC[C@@]2(C)[C@H]1CC[C@]2(C)O [Oxandrolone] | 74.3% | 
CCCn1c(C)c(C(=O)c2cccc3ccccc23)c2ccccc21 | 90.1% | 
O=P1(N(CCCl)CCCl)NCCCO1 (stereo unspecified) | 82.9 ± 16% | 
O=P1(N(CCCl)CCCl)NCCCO1 (stereo unspecified) [Cyclophosphamide monohydrate] | 95.9% | 
O=P1(N(CCCl)CCCl)NCCCO1 (stereo unspecified) [Cyclophosphamide] | 94.1 ± 27% | 
c1ccc2c(c1)sc1ccccc12 | 81.9 ± 5.7% | 
O=C1C=CC(=O)C=C1 [p-Benzoquinone] | 97.3% | 
COc1ccc2c(c1OC)C(=O)OC2C1c2cc3c(cc2CCN1C)OCO3 (single isomer, unassigned; (+)) [(+)-Hydrastine] | 101% | 
O=CN1C[C@@H]2C[C@H](C1)c1cccc(=O)n1C2 |  | 72.8%
C=C1C[C@@H]2[C@H](CC[C@]3(C)C(=O)CC[C@@H]23)[C@@]2(C)C=CC(=O)C=C12 [Exemestane] | 91.7% | 
C=C1C[C@@H]2[C@H](CC[C@]3(C)C(=O)CC[C@@H]23)[C@@]2(C)C=CC(=O)C=C12 | 84.5 ± 3.7% | 

SMILES | HMGB1-induced TNF-alpha production (compound concentration: 3 uM) | HMGB1-induced TNF-alpha production [1]
O=C1c2ccccc2C(=O)N1CCN1CC2CC(C1)c1cccc(=O)n1C2 (stereo unspecified) |  | 67.8% and 77.4%
CC(=O)[C@H]1CC[C@H]2[C@@H]3CC[C@H]4C[C@H](O)CC[C@]4(C)[C@H]3C(=O)C[C@]12C [5alpha-Pregnan-3alpha-ol-11,20-dione] | 102% | 
CC(=O)[C@H]1CC[C@H]2[C@@H]3CC[C@H]4C[C@H](O)CC[C@]4(C)[C@H]3C(=O)C[C@]12C [Alfaxalone] | 96.1% | 
CC(=O)c1c(O)c(C)c(O)c(Cc2c(O)c3c(c(C(=O)/C=C/c4ccccc4)c2O)OC(C)(C)C=C3)c1O [Rottlerin] | 261% | 196%
COc1ccccc1N1CCNCC1 [1-(2-Methoxyphenyl)piperazine hydrochloride] | 113% | 
C=C1[C@@H](C)[C@H]2[C@H](Cc3ccccc3)NC(=O)[C@]23[C@H](OC(C)=O)/C=C/[C@@](C)(O)C(=O)[C@@H](C)C/C=C/[C@H]3[C@@H]1O | 90.8% | 
O=C(O)c1cc[c]([Hg][Cl])cc1 [4-Chloromercuribenzoic acid] | 75.4% | 
FC(F)(F)c1cccc(N2CCNCC2)c1 | 101% | 
CC1=NN=C(c2ccc(N)cc2)c2cc3c(cc2C1)OCO3 | 88.1% | 
C[C@]12C/C(=C/O)C(=O)C[C@@H]1CC[C@@H]1[C@@H]2CC[C@@]2(C)[C@H]1CC[C@]2(C)O [Oxymetholone] | 106% | 
CC(C)=CCC[C@]1(C)C=Cc2c(O)c3c(c(CC=C(C)C)c2O1)O[C@]12C(=C[C@@H]4C[C@H]1C(C)(C)O[C@@]2(C/C=C(/C)C(N)=O)C4=O)C3=O | 53.1% | 
CCN1CC2(COC(=O)c3ccccc3N3C(=O)CC(C)C3=O)CC[C@H](OC)[C@@]34C5C[C@@H]6[C@@H](OC)C[C@@](O)(C5[C@H]6OC)[C@](O)([C@@H](OC)C23)[C@@H]14.[O-][Cl+3]([O-])([O-])O (stereo partly specified) |  | 69.4%
CCCC(C)(COC(N)=O)COC(=O)NC(C)C (stereo unspecified) [Carisoprodol] | 92.1 ± 24% | 
CCCC(C)(COC(N)=O)COC(=O)NC(C)C (stereo unspecified) | 93.3% | 
CCC1(C)CC(=O)NC(=O)C1 [Bemegride] | 117% | 
COC(C)(C)CCC[C@H](C)C/C=C/C(C)=C/C(=O)OC(C)C | 65.4 ± 18% | 
C[C@@]12C(=O)OC(=O)[C@]1(C)[C@H]1CC[C@@H]2O1 | 1.47% | 
C[C@@]12C(=O)OC(=O)[C@]1(C)[C@H]1CC[C@@H]2O1 [Cantharidin] | 41.9 ± 35% | -2.94%
C/C(O)=C(\C#N)C(=O)Nc1cc(Br)ccc1Br | 109% | 
Cl[C@H]1[C@H](Cl)[C@@H](Cl)[C@@H](Cl)[C@H](Cl)[C@H]1Cl | 85.1% | 
Oc1ccc(Cl)cc1Cc1cc(Cl)ccc1O | 98.1% | 

SMILES | HMGB1-induced TNF-alpha production (compound concentration: 3 uM) | HMGB1-induced TNF-alpha production [1]
NC(=O)OCCCc1ccccc1 | 92.3% | 
NC1CCc2cc(O)c(O)cc2C1 (stereo unspecified) [6,7-ADTN hydrobromide] | 91.7% | 
N[C@@H]1C[C@H]1c1ccccc1.N[C@H]1C[C@@H]1c1ccccc1 | 94.8% | 
N[C@@H]1C[C@H]1c1ccccc1.N[C@H]1C[C@@H]1c1ccccc1 [Tranylcypromine] | 88.5% | 
NC(CP(=O)(O)O)C(=O)O (racemic) [(±)-2-Amino-3-phosphonopropionic acid] | 93.7% | 
CN1CC2C[C@@H](C1)Cn1c2cccc1=O |  | 80.3%
OC(c1ccccc1)(c1ccccc1)C1CCNCC1 [Azacyclonol] | 78.2% | 
CC[C@H]1CN2CC[C@H]1C[C@@H]2[C@@H](O)c1ccnc2ccccc12 [Hydrocinchonine] |  | 47.7%
COc1cc(N)c(Cl)cc1C(=O)NC1CN2CCC1CC2 (stereo unspecified) [Zacopride] | 96.3% | 
N=C(NCc1ccc(Cl)cc1)SCCCc1c[nH]cn1 [Clobenpropit] | 91.1% | 
C[N+]1(C)CCCC(OC(=O)C(O)(c2ccccc2)c2ccccc2)C1 (stereo unspecified) [Mepenzolate bromide] | 111% | 
C[N+]1(C)CCCC(OC(=O)C(O)(c2ccccc2)c2ccccc2)C1 (stereo unspecified) | 85% | 
C[C@@H]1CN([C@H]2CC[C@](C#N)(c3ccc(F)cc3)CC2)CC[C@]1(C(=O)O)c1ccccc1 [Levocabastine] | 79.5% | 
C[C@@H]1CN([C@H]2CC[C@](C#N)(c3ccc(F)cc3)CC2)CC[C@]1(C(=O)O)c1ccccc1 [Levocabastine hydrochloride] | 96.7% | 
CCCC[N+]1(C)[C@@H]2C[C@@H](OC(=O)[C@H](CO)c3ccccc3)C[C@H]1[C@@H]1O[C@@H]12 (single isomer, unassigned; (-)) [(-)-Scopolamine,n-Butyl-, bromide] | 99.2% | 
c1ccc2sc(C3(N4CCCCC4)CCCCC3)cc2c1 [BTCP hydrochloride] | 79% | 
C[N+]1(C)C2CCC1CC(OC(=O)c1c[nH]c3ccccc13)C2 (stereo unspecified) [3-Tropanylindole-3-carboxylate methiodide] | 102% | 
COc1cc(CC(C)N)c(OC)cc1I (racemic) [(±)-DOI hydrochloride] | 87.7% | 
N#C/C(=C\c1ccc(O)c(O)c1)C(N)=S [Tyrphostin 47] | 105% | 
CN1CC(CNC(=O)OCc2ccccc2)CC2c3cccc4c3c(cn4C)CC21 (stereo unspecified) [Metergoline phenylmethyl ester] |  | 72.9%
CCC1(CC)C(=O)NC(=O)NC1=O | 79.6% | 
